Test results from publication PMC5340530.
Results are given in words; binding and its absence hold for the method and conditions named. For part of these data: In cells and extracts the contact can be indirect. Some results given as binding are weak or reduced against the parent protein; the word gives no strength.

Protein sequences, listed by entry. Tags and fused reporters are not part of them.
UniProt P61088: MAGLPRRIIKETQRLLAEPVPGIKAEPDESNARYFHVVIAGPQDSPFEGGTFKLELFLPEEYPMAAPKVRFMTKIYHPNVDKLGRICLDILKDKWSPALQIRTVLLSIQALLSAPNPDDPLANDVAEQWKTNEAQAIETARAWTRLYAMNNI
UniProt Q13489: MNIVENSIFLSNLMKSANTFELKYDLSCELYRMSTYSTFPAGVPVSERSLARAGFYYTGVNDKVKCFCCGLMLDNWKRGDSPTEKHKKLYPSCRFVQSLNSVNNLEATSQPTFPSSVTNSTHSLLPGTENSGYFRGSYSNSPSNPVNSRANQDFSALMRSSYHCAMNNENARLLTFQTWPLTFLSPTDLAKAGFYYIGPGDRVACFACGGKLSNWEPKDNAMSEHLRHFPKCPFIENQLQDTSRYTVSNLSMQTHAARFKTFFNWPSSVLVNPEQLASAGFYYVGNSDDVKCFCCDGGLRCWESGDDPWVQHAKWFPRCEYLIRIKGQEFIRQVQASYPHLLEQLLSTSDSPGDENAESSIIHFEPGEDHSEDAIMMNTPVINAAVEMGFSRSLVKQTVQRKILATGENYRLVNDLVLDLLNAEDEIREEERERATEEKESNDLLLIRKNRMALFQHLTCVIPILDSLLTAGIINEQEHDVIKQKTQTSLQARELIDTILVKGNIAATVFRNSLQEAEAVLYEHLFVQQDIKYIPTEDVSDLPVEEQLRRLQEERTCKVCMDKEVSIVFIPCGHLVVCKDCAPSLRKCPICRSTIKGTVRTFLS

Experiments:
full length FLAG-YOD1 = full length FLAG-YOD1 (UniProt Q5VVQ6); assay: co-IP; tagged proteins co-transfected in HEK293 cells; IP with anti-HA, anti-FLAG or anti-MYC antibodies; Western blot
[1] = biological target: YOD1, GAL4 AD or BD fusion (yeast two-hybrid) (UniProt Q5VVQ6); assay: two-hybrid; GAL4 AD (pGAD-C1) and BD (pGBD-C1) fusions co-transformed in S. cerevisiae PJ69-7A; growth on -HIS-LEU-TRP plates
[2] = biological target: UBC13 (yeast two-hybrid fusion) (UniProt P61088); assay: as above

| binding (full length FLAG-YOD1) | binding [1] | binding [2] | Substance |
| --- | --- | --- | --- |
| no binding | – | – | p62 in HEK293 cells (construct not told) (from UniProt Q13501 1-440) |
| – | binds weakly | binds | cIAP2 (AD fusion, yeast two-hybrid) (from UniProt Q13489 1-604) (enzyme) |
